Laboratory results: PubChem BioAssay AID743454 (Peter MacCallum Cancer Centre, 2014)
This is a random part of about 18,000 reagents. 450 of them (2.5%) were called active. 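Single biological run; no consistent viability z cut-off exists, so the class columns, not z-scores, define the calls.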 No sequences are given here.

Assay: 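Knock-downs lowering viability or raising caspase 3/7 activity in vorinostat-treated resistant cells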 (primary screen)
Cells: human HCT116-VR colon cancer cells, selected for vorinostat resistance
Reagents: siRNA pool against human genes, 40 nM siRNA pool
Timing: vorinostat for 24 h, read-out about 72 h after transfection
Conditions: vorinostat at 2.5 µM final
Measured: 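Two measures, CellTiter-Fluor viability and luminescent caspase 3/7 activity, each as fold change against same-plate mock wells, mean of duplicates, then screen-wide robust z-score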
Reading the numbers: viability robust z-score: higher = more viable cells than screen typical; caspase robust z-score: higher = more caspase 3/7 activity than screen typical
Active means: 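Hits are knock-downs in viability class RV1/RV2 or caspase class CA1/CA2, excluding ones that killed cells in the no-drug cell-count arm; hits then retested with single siRNAs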

SARM1 → viability hit class: no change; caspase hit class: no change; viability robust z-score: -2.61; caspase robust z-score: -0.22; outcome: inactive
TRIB2 → viability hit class: no change; caspase hit class: no change; viability robust z-score: -0.42; caspase robust z-score: 0.08; outcome: inactive
UBQLN4 → viability hit class: no change; caspase hit class: no change; viability robust z-score: -0.98; caspase robust z-score: 4.4; outcome: inactive
RYR3 → viability hit class: no change; caspase hit class: no change; viability robust z-score: -0.98; caspase robust z-score: -0.04; outcome: inactive
ZNF532 → viability hit class: no change; caspase hit class: no change; viability robust z-score: -2.21; caspase robust z-score: -1.72; outcome: inactive
SFTPB → viability hit class: no change; caspase hit class: no change; viability robust z-score: -0.35; caspase robust z-score: 2.41; outcome: inactive
FBXW10B → viability hit class: no change; caspase hit class: no change; viability robust z-score: -0.02; caspase robust z-score: -0.4; outcome: inactive
SATB1 → viability hit class: no change; caspase hit class: no change; viability robust z-score: 1.7; caspase robust z-score: 0.3; outcome: inactive
TSKU → viability hit class: no change; caspase hit class: no change; viability robust z-score: 2.06; caspase robust z-score: 0.68; outcome: inactive
NR5A2 → viability hit class: no change; caspase hit class: no change; viability robust z-score: -1.27; caspase robust z-score: 0.04; outcome: inactive
RHOF → viability hit class: no change; caspase hit class: no change; viability robust z-score: 0.86; caspase robust z-score: 0.02; outcome: inactive
GALNT5 → viability hit class: no change; caspase hit class: no change; viability robust z-score: -0.12; caspase robust z-score: -0.62; outcome: inactive
ELANE → viability hit class: no change; caspase hit class: no change; viability robust z-score: 0.76; caspase robust z-score: -0.2; outcome: inactive
TBC1D2B → viability hit class: no change; caspase hit class: CA1 (caspase activation); viability robust z-score: 1.04; caspase robust z-score: 5.42; outcome: active
DGKG → viability hit class: no change; caspase hit class: no change; viability robust z-score: 1.38; caspase robust z-score: 0.37; outcome: inactive
PAK2 → viability hit class: no change; caspase hit class: no change; viability robust z-score: 2; caspase robust z-score: -0.28; outcome: inactive
PDE8A → viability hit class: no change; caspase hit class: no change; viability robust z-score: 0.53; caspase robust z-score: 1.77; outcome: inactive
MAGEB1 → viability hit class: no change; caspase hit class: no change; viability robust z-score: 0.96; caspase robust z-score: 0.13; outcome: inactive
RYBP → viability hit class: no change; caspase hit class: no change; viability robust z-score: 0.68; caspase robust z-score: 0.3; outcome: inactive
CCDC42 → viability hit class: no change; caspase hit class: no change; viability robust z-score: -0.18; caspase robust z-score: -0.8; outcome: inactive
RAD23B → viability hit class: no change; caspase hit class: no change; viability robust z-score: 0.12; caspase robust z-score: -0.79; outcome: inactive

Ordered by “viability robust z-score” (lowest first): 3 of the entries above
PDE8A → viability hit class: no change; caspase hit class: no change; viability robust z-score: 0.53; caspase robust z-score: 1.77; outcome: inactive
RYBP → viability hit class: no change; caspase hit class: no change; viability robust z-score: 0.68; caspase robust z-score: 0.3; outcome: inactive
MAGEB1 → viability hit class: no change; caspase hit class: no change; viability robust z-score: 0.96; caspase robust z-score: 0.13; outcome: inactive
